System: additional tumor types
Experiment: LC-MS detection and over-presentation of the peptides on additional tumor types, cell lines and primary cultures
Parameters: species or system human
Conditions: for Other relevant organs/ cancerous diseases: Table 4A: additional tumor types on which the peptide was found, over-presented on more than 5% of measured tumor samples, or presented on more than 5% with ratio of geometric means tumor vs normal tissues larger than 3
[1] = amendment of Table 4: additional tumor types showing over-presentation (including specific presentation) on more than 5% of measured tumor samples, or presentation on more than 5% with ratio of geometric means tumor vs normal tissues larger than 3
[2] = additional tumor types with over-presentation on more than 5% of the measured tumor samples, or presentation on more than 5% with ratio of geometric means tumor vs normal tissues larger than 3

Row | Substance | Other relevant organs/ cancerous diseases | Additional organs/cancerous diseases [1] | Additional organs/cancerous diseases [2]
1 | 19 (FMVDNEAIYDI; listed as Homo sapiens) [compound 19] | SCLC, CRC, HCC, Leukemia, Melanoma, Esophageal Cancer, Urinary bladder Cancer | – | –
2 | 22 (IMEENPGIFAV; listed as Homo sapiens) [compound 22] | CRC, Leukemia, Melanoma | CLL, Urinary Bladder Cancer, Gallbladder Cancer and Bile Duct Cancer | –
3 | 49 (YLPAVFEEV; listed as Homo sapiens) [compound 49] | Leukemia | CLL | –
4 | 66 (FLDENIGGVAV; listed as Homo sapiens) [compound 66] | SCLC, HCC | Melanoma, Urinary Bladder Cancer, Uterine Cancer, Gallbladder Cancer and Bile Duct Cancer, AML, NHL, HNSCC | –
5 | 80 (FLYDNLVESL; listed as Homo sapiens) [compound 80] | Leukemia | CLL, NHL | –
6 | 85 (KMSELRVTL; listed as Homo sapiens) [compound 85] | SCLC, Esophageal Cancer | – | –
7 | 95 (SVIPQIQKV; listed as Homo sapiens) [compound 95] | PC, Esophageal Cancer | – | –
8 | 104 (STMEQNFLL; listed as Homo sapiens) [compound 104] | – | SCLC, BRCA, Melanoma, Gallbladder Cancer and Bile Duct Cancer, HNSCC | –
9 | 121 (GVVDPRAISVL; listed as Homo sapiens) [compound 121] | Esophageal Cancer | – | –
10 | 128 (YLFDDPLSAV; listed as Homo sapiens) [compound 128] | Leukemia, Esophageal Cancer | CLL, BRCA, Uterine Cancer, Gallbladder Cancer and Bile Duct Cancer, AML, NHL, HNSCC | –
11 | 140 (YMDAPKAAL; listed as Homo sapiens) [compound 140] | – | Melanoma, AML | –
12 | 154 (ALDDGTPAL; listed as Homo sapiens) [compound 154] | HCC | Uterine Cancer | –
13 | 195 (GLFADLLPRL; listed as Homo sapiens) [compound 195] | NSCLC | – | PC, Uterine Cancer, AML, HNSCC
14 | 207 (GLTSTNAEV; listed as Homo sapiens) [compound 207] | HCC, PrC, Esophageal Cancer, Uterine Cancer | – | AML
15 | 214 (FLLDLDPLLL; listed as Homo sapiens) [compound 214] | SCLC, HCC, Leukemia, Uterine Cancer | – | –
16 | 250 (ALSEEGLLVYL; listed as Homo sapiens) [compound 250] | – | – | BRCA, Melanoma
17 | 260 (TLLEGPDPAELLL; listed as Homo sapiens) [compound 260] | – | – | AML
18 | 262 (LLWGDLIWL; listed as Homo sapiens) [compound 262] | Leukemia | – | CRC, PrC, CLL, Melanoma, AML
19 | 264 (SLQEQLHSV; listed as Homo sapiens) [compound 264] | NSCLC, SCLC, PrC, BrCa, Melanoma, Esophageal Cancer | – | Uterine Cancer
20 | 266 (KITDTLIHL; listed as Homo sapiens) [compound 266] | BrCa | – | Uterine Cancer
21 | 268 (IAGPGLPDL; listed as Homo sapiens) [compound 268] | NSCLC, RCC, BrCa | – | HCC, Uterine Cancer, NHL
22 | 269 (RVLEVGALQAV; listed as Homo sapiens) [compound 269] | HCC | – | CLL
23 | 270 (LLLDEEGTFSL; listed as Homo sapiens) [compound 270] | Leukemia | – | CLL, BRCA, Melanoma, NHL
24 | 272 (ALGNTVPAV; listed as Homo sapiens) [compound 272] | PC, Leukemia, Endometrium | – | –
25 | 273 (NLFQSVREV; listed as Homo sapiens) [compound 273] | HCC, BrCa | – | –

Row | Substance | Other relevant organs/ cancerous diseases | Additional organs/cancerous diseases [1] | Additional organs/cancerous diseases [2]
26 | 276 (ALFTFSPLTV; listed as Homo sapiens) [compound 276] | Leukemia | – | Uterine Cancer
27 | 283 (ALYIGDGYVIHLA; listed as Homo sapiens) [compound 283] | SCLC, BrCa, MCC, Melanoma | – | Esophageal Cancer, Urinary Bladder Cancer, Uterine Cancer, NHL
28 | 284 (ILLSQTTGV; listed as Homo sapiens) [compound 284] | Prostate, Leukemia | – | CLL, Urinary Bladder Cancer, AML, HNSCC
29 | 286 (YLFPGIPEL; listed as Homo sapiens) [compound 286] | SCLC, HCC | – | NSCLC, CLL, Melanoma, AML, NHL, HNSCC
30 | 287 (FLNEFFLNV; listed as Homo sapiens) [compound 287] | NSCLC, Leukemia, Melanoma, Esophageal Cancer | – | –
31 | 290 (GLLDLNNAILQL; listed as Homo sapiens) [compound 290] | HCC | – | Uterine Cancer
32 | 291 (GLDSNLKYILV; listed as Homo sapiens) [compound 291] | PC, Melanoma | – | –
33 | 293 (GLGELQELYL; listed as Homo sapiens) [compound 293] | – | – | AML, NHL
34 | 294 (ILDPFQYQL; listed as Homo sapiens) [compound 294] | HCC, Esophageal Cancer | – | Melanoma, Gallbladder Cancer and Bile Duct Cancer, NHL, HNSCC
35 | 297 (VLADIELAQA; listed as Homo sapiens) [compound 297] | – | – | CLL
36 | 299 (YLLETSGNL; listed as Homo sapiens) [compound 299] | Leukemia, Urinary bladder Cancer | – | –
37 | 300 (ALLGQTFSL; listed as Homo sapiens) [compound 300] | SCLC, Brain Cancer, CRC | – | AML, HNSCC
38 | 301 (FLVEDLVDSL; listed as Homo sapiens) [compound 301] | SCLC, HCC, Leukemia | – | CLL, BRCA, Melanoma, Uterine Cancer, AML
39 | 302 (ALLQEGEVYSA; listed as Homo sapiens) [compound 302] | – | – | Melanoma, Urinary Bladder Cancer
40 | 304 (MTLGQIYYL; listed as Homo sapiens) [compound 304] | – | – | NSCLC, SCLC, CRC, HCC, BRCA, Melanoma, Urinary Bladder Cancer, Uterine Cancer, Gallbladder Cancer and Bile Duct Cancer, AML, HNSCC
41 | 306 (ALVNVQIPL; listed as Homo sapiens) [compound 306] | HCC, Esophageal Cancer | – | Melanoma, Uterine Cancer
42 | 309 (GLFDGVPTTA; listed as Homo sapiens) [compound 309] | HCC, Leukemia, BrCa, Melanoma | – | SCLC, Urinary Bladder Cancer, Gallbladder Cancer and Bile Duct Cancer, HNSCC
43 | 310 (FLVDTPLARA; listed as Homo sapiens) [compound 310] | Urinary bladder Cancer | – | Gallbladder Cancer and Bile Duct Cancer, HNSCC
44 | 312 (IISDLTIAL; listed as Homo sapiens) [compound 312] | SCLC, PC | – | NSCLC, CRC, BRCA, Melanoma, Esophageal Cancer, Uterine Cancer, Gallbladder Cancer and Bile Duct Cancer, NHL, HNSCC
45 | 313 (VLFDDELLMV; listed as Homo sapiens) [compound 313] | NSCLC, RCC, Brain Cancer, HCC, Esophageal Cancer | – | –
46 | 314 (ALIAEGIALV; listed as Homo sapiens) [compound 314] | SCLC, Melanoma | – | Uterine Cancer
47 | 316 (ILLERLWYV; listed as Homo sapiens) [compound 316] | Melanoma | – | –
48 | 317 (SLAALVVHV; listed as Homo sapiens) [compound 317] | Esophageal Cancer, Urinary bladder Cancer | – | NSCLC, Gallbladder Cancer and Bile Duct Cancer, HNSCC
49 | 324 (FLYDEIEAEV; listed as Homo sapiens) [compound 324] | Leukemia | – | CLL

Reference: US11230581B2, “Peptides and combination of peptides for use in immunotherapy against ovarian cancer and other cancers” (Immatics Biotechnologies GmbH, priority 2015, dated 2022)
